Experimental data published in patent US5807671A (priority 1995, dated 1998).
At least one compound was matched to its structure with a doubt left.

Protein sequences, listed by entry. Tags and fused reporters are not part of them. Residues count along the entry.
UniProt P06276, 29-602 L314K limits assumed: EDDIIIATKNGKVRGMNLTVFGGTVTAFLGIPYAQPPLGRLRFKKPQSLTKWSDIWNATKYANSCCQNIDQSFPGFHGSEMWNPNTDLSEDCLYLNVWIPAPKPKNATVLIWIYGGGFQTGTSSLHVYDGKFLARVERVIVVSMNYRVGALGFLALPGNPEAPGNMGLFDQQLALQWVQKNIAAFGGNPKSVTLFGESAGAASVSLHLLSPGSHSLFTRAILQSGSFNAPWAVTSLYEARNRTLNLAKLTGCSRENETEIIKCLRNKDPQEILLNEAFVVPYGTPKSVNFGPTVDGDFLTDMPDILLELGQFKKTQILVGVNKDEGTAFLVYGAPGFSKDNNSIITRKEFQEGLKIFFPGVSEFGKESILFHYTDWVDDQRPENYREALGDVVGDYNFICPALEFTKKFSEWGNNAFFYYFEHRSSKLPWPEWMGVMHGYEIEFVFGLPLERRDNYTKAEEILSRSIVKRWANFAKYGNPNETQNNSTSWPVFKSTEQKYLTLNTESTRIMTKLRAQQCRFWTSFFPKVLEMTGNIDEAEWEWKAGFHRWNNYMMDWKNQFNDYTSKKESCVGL
UniProt P22303, 32-614: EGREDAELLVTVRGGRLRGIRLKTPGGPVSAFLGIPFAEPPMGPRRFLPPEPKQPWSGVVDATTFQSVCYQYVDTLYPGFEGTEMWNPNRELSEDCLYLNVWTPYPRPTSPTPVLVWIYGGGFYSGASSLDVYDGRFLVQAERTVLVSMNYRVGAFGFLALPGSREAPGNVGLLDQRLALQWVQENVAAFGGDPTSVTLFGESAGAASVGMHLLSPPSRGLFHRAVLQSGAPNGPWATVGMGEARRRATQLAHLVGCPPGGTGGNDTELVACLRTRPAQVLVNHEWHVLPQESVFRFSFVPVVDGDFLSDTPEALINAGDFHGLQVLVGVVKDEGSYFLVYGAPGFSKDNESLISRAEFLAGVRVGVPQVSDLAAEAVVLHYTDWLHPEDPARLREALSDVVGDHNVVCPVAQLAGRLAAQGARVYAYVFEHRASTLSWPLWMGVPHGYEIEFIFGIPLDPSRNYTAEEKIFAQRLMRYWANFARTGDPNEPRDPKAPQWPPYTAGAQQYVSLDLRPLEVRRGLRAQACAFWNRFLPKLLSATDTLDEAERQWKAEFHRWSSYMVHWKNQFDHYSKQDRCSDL

Columns and labels:
"atypical" BuChE = settings: cited from earlier work
BuChE = assay type: biochemical, human
[1] = test system: Chimera of human AChE and BuChE; assay type: biochemical
BuChE L^286 D = assay type: biochemical, human
BuChE L^286 Q = assay type: biochemical, human
BuChE L^286 R = assay type: biochemical, human
BuChE L^286 K = BuChE L^286 K (Homo sapiens, UniProt P06276, L314K); assay type: biochemical
normal serum BuChE = assay type: biochemical, human
"atypical" serum BuChE = assay type: biochemical, human
[2] = test system: serum BuChE of heterozygotes; assay type: biochemical, human
AChE E6 = AChE E6 (Homo sapiens, UniProt P22303); settings: cited from earlier work

Compound | affinity toward ACh of "atypical" BuChE ("atypical" BuChE) | kcat × 10^-3 (BuChE) | turnover number (BuChE) | kcat × 10^-3 [1] | kcat × 10^-3 (BuChE L^286 D) | kcat × 10^-3 (BuChE L^286 Q) | kcat × 10^-3 (BuChE L^286 R) | kcat × 10^-3 (BuChE L^286 K) | reduction in the turnover number (BuChE L^286 K) | hydrolysis by normal serum BuChE (normal serum BuChE) | serum BuChE activity against BTCh, percent of normal level ("atypical" serum BuChE) | specific activity of "atypical" BuChE lower than that of the normal enzyme ("atypical" serum BuChE) | specific activity of heterozygotes, percent of normal homozygotes [2] | kcat × 10^-3 (AChE E6) | Km for BTCh of "atypical" versus wild-type BuChE ("atypical" BuChE)
CC(=O)OCC[N+](C)(C)C [ACh, acetylcholine] | drastically reduced |  |  |  |  |  |  |  |  |  |  |  |  |  | 
CCCC(=O)SCC[N+](C)(C)C [BTCh, butyrylthiocholine] |  | 96 ± 22 | 96,000 min^-1 | 36 ± 14 | 38 ± 15 | 42 ± 24 | 13 ± 7 | 13 ± 5 | 5 fold | 80 nmol butyrylthiocholine/min/μl serum | approximately 30 % of normal level | about 3 fold | 60-70 % of normal homozygotes | 7.5 | unchanged
